Read-outs that look alike come from different tables or passages of the source. These are yes or no findings as the source states them, for the method shown. In cells and extracts the contact can be indirect. Some entries that bind do so weakly or less than the wild type. For some assays here: Tags and fused reporters may be left off the sequences shown. One block for each molecule: values may come before it.
Key:
[1] = target: T1, GFP-tagged TXNIP full length (F) (UniProt Q9H3M7); experiment: co-IP; HEK293T cells co-transfected with tagged constructs, lysed 24 h later; IP with anti-Myc (NLRP3 constructs) or anti-GFP (TXNIP constructs) antibody, Western blot for HA and the bait's tag
T1 sequence: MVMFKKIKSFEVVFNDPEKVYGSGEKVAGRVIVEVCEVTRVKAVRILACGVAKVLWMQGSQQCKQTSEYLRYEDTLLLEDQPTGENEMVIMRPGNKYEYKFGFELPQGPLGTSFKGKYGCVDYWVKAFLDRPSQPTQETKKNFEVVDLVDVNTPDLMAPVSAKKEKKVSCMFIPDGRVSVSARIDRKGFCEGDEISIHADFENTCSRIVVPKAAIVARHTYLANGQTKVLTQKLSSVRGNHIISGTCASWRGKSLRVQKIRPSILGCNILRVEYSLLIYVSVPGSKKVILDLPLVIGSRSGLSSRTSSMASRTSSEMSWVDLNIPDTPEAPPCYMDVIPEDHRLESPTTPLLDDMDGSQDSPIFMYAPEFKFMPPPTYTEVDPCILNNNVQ

The chains behind the UniProt entries cited, without tags or fusion partners.
UniProt Q96P20: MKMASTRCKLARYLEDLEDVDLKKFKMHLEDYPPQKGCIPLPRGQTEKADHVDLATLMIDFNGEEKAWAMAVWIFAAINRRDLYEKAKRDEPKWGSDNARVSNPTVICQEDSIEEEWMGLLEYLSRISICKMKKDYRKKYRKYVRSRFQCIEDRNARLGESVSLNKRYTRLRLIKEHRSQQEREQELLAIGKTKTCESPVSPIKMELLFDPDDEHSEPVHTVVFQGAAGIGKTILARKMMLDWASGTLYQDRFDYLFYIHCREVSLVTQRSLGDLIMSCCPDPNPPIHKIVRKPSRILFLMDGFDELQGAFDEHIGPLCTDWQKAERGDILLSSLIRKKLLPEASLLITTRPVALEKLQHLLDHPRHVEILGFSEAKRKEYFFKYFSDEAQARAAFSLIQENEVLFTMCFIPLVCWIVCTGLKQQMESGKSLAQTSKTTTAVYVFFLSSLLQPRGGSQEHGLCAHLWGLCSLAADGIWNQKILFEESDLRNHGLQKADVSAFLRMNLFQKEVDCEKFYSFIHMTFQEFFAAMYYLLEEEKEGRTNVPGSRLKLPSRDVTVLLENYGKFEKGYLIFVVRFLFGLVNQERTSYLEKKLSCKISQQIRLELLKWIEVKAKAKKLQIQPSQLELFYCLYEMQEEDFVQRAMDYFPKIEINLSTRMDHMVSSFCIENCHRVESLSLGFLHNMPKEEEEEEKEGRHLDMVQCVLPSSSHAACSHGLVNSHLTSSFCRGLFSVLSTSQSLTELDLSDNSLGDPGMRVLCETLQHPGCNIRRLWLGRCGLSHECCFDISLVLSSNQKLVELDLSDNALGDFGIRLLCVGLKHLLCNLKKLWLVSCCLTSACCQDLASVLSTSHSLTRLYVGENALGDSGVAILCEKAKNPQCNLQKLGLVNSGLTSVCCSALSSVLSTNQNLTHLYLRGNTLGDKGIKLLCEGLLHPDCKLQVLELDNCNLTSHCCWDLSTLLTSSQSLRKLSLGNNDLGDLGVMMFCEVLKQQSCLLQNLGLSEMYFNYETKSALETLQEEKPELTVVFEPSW
UniProt P11103: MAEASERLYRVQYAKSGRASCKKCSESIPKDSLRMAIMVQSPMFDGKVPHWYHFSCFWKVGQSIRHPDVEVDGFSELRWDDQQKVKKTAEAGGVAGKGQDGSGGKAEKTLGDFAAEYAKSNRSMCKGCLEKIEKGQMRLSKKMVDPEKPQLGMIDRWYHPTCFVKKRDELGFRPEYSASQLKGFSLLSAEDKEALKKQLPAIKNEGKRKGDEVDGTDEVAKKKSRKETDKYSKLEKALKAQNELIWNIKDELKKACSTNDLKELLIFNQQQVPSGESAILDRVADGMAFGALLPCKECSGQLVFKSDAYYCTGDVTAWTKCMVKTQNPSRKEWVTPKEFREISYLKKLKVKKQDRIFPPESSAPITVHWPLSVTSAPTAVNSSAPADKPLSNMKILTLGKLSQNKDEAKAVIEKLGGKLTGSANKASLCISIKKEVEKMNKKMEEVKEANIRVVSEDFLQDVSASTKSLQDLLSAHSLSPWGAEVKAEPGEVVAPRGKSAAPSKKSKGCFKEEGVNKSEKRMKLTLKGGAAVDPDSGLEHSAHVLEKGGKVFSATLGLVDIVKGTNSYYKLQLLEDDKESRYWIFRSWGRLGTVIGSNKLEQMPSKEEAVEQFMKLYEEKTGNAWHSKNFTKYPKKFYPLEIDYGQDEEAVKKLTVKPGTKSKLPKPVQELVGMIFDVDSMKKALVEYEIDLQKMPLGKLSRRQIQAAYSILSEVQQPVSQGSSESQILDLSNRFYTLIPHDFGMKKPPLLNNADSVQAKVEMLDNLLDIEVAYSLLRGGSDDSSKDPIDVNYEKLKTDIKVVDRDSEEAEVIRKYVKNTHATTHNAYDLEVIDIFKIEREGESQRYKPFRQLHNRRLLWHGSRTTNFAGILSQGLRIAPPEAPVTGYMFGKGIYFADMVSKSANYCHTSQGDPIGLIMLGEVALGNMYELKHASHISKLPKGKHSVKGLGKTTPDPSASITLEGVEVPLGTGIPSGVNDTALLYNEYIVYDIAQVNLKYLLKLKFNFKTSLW
UniProt P09874: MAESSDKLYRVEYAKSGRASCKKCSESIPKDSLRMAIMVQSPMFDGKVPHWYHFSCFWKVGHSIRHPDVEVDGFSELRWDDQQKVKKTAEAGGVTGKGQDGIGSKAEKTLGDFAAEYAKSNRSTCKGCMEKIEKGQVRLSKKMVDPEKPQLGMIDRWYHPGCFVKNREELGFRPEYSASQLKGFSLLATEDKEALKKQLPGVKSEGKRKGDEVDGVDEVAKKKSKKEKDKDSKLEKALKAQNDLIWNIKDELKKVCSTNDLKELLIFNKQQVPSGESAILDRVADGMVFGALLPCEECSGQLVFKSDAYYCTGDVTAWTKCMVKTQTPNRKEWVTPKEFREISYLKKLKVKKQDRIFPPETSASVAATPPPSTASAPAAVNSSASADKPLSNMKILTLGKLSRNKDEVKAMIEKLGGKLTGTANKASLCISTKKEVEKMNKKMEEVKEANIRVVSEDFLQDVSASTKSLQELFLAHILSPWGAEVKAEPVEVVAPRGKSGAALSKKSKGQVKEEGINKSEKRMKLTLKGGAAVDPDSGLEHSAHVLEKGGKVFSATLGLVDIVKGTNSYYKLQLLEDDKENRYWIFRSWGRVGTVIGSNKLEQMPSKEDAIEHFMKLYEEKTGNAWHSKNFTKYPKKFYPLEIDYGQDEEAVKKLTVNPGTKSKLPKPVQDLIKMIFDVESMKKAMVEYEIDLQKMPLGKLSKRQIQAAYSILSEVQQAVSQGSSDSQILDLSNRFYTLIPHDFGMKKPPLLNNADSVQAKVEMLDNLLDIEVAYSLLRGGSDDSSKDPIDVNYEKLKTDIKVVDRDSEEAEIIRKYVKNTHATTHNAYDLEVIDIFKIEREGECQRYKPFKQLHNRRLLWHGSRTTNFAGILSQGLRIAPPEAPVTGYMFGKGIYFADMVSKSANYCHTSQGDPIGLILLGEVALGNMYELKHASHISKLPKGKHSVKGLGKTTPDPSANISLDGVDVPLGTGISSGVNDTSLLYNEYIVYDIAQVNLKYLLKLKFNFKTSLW
UniProt Q8R4B8: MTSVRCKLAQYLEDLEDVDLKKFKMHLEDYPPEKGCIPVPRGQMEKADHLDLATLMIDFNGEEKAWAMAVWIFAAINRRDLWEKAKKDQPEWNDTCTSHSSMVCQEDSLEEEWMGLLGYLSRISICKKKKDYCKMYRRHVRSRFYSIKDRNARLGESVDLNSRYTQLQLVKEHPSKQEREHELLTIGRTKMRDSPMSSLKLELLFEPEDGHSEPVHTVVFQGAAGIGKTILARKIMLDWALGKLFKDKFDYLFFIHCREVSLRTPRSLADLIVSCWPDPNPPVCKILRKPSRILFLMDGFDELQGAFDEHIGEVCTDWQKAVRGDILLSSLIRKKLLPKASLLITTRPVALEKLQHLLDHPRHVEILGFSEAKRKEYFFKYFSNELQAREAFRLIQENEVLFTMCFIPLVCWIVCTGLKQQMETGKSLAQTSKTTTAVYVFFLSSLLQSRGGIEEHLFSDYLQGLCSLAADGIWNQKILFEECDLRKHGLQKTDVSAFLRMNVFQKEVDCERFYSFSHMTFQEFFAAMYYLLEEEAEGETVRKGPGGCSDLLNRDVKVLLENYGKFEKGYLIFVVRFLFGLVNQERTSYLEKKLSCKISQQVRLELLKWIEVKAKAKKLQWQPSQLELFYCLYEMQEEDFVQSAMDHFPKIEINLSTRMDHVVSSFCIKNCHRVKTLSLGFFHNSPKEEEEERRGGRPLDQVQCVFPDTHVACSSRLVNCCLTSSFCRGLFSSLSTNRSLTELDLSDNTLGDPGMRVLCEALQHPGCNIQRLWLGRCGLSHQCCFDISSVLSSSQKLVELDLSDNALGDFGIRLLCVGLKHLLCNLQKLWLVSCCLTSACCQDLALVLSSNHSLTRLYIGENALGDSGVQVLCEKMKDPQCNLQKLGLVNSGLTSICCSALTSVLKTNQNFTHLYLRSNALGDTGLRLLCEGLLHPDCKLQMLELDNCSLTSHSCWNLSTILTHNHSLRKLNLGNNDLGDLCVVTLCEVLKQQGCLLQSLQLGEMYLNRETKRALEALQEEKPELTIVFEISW

[2] = target: Myc-tagged NLRP3 full length (F) (UniProt Q96P20); experiment: as above
[3] = target: Poly(ADP-ribose) polymerase-1 (PARP-1) (mouse (endogenous in BMDM)) (UniProt P11103); experiment: co-IP; endogenous proteins in lysates of WT or Parp-1-/- BMDM primed with LPS (1 ug/ml, 6 h) and stimulated with ATP (5 mM), some pretreated with DPQ (25 uM) or NAC (1 mM); RIPA buffer 150 mM NaCl, IP with caspase-1, PARP-1 or TXNIP antibody and protein A-agarose, washes with 300 and 150 mM NaCl; Western blot
[4] = target: T2, pro-caspase-1 (mouse (endogenous in BMDM)) (UniProt P29452); experiment: as above
T2 sequence: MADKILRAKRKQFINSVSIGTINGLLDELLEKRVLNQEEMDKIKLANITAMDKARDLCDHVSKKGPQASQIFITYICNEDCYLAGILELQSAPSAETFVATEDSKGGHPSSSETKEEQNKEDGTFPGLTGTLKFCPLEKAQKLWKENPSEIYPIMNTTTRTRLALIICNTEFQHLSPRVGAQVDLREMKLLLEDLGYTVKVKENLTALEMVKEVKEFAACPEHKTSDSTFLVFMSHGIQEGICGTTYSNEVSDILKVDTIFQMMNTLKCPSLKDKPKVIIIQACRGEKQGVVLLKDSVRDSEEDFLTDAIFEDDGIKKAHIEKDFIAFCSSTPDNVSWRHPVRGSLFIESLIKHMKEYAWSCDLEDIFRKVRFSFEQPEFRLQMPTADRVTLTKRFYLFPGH

[5] = target: Poly(ADP-ribose) polymerase-1 (PARP-1) (mouse (endogenous in BMDM)) (UniProt P11103); experiment: as above; remark: listed apart in the source

- binding [1]: binds
- binding [2]: binds
Molecule: HA-tagged PARP-1 full length (F) (from UniProt P09874 1-1014)

- binding [3]: binds
- binding [4]: binds
Molecule: NLRP3 (NACHT domain-, leucine-rich repeat-, and pyrin domain-containing protein 3) (from UniProt Q8R4B8 1-1033)

- binding [5]: binds
B1: thioredoxin-interacting protein (TXNIP) (protein, UniProt Q8BG60 1-397)
chain: MVMFKKIKSFEVVFNDPEKVYGSGEKVAGRVIVEVCEVTRVKAVRILACGVAKVLWMQGSQQCKQTLDYLRYEDTLLLEEQPTAGENEMVIMRPGNKYEYKFGFELPQGPLGTSFKGKYGCVDYWVKAFLDRPSQPTQEAKKNFEVMDLVDVNTPDLMAPVSAKKEKKVSCMFIPDGRVSVSARIDRKGFCEGDDISIHADFENTCSRIVVPKAAIVARHTYLANGQTKVFTQKLSSVRGNHIISGTCASWRGKSLRVQKIRPSILGCNILKVEYSLLIYVSVPGSKKVILDLPLVIGSRSGLSSRTSSMASRTSSEMSWIDLNIPDTPEAPPCYMDIIPEDHRLESPTTPLLDDVDDSQDSPIFMYAPEFQFMPPPTYTEVDPCVLNNNNNNNNVQ
